From the supplement of paper PMC11348887 come the findings set out here.

What all share (details): 5 µM; treatment: days 7-14 after plating, readout day 21
Assay [1] concerns hPSC-derived cortical neurons (WA09). In words: nucleus area z-score vs screen plate; higher = larger nuclei (more mature).
The test system is the same in assay [2]. In words: total neurite length per nucleus (MAP2) z-score; higher = more neurite growth.
Assay [3] has the same test system. In words: nucleus roundness z-score vs screen plate; higher = rounder nuclei (more mature).
Assay [4] shares this test system. Description: KCl-induced FOS+/EGR-1+ double-positive nuclei fraction z-score (KCl minus unstimulated); higher = stronger activity-induced IEG response.

Where a name gives a salt, the structure may show the parent alone. The list shows a part of the results. Small differences around the control level are noise.

For `CO[C@H]1/C=C/O[C@@]2(C)Oc3c(C)c(O)c4c(O)c(c(/C=N/N5CCN(C6CCCC6)CC5)c(O)c4c3C2=O)NC(=O)/C(C)=C\C=C\[C@H](C)[C@H](O)[C@@H](C)[C@@H](O)[C@@H](C)[C@H](OC(C)=O)[C@@H]1C` [Rifapentine], the nucleus area z-score in assay [1] worked out at 1.17. Also, the “total neurite length per nucleus (z-score)” value in assay [2] was -0.269. The nucleus roundness z-score in assay [3] is -0.00659. Besides, the “KCl-induced FOS+/EGR-1+ double-positive nuclei fraction z-score” value in assay [4] amounted to 0.237.

In turn, `CCOC(=O)c1ccc(OC(=O)CCCCCNC(=N)N)cc1` [Gabexate Mesylate] came in with a nucleus area z-score in assay [1] of -0.29. The “total neurite length per nucleus (z-score)” value in assay [2] is -0.973. In assay [3], the nucleus roundness z-score is -3.16. Further, the “KCl-induced FOS+/EGR-1+ double-positive nuclei fraction z-score” value in assay [4] is -0.83.

Take `COc1c(C)c(C(=O)c2ccc(N)c(C(=O)O)c2)n2ccccc12`: the nucleus area z-score in assay [1] was found to be 0.348. For the same compound, the “total neurite length per nucleus (z-score)” value in assay [2] is -0.034. This compound gave a nucleus roundness z-score in assay [3] of 0.356. The “KCl-induced FOS+/EGR-1+ double-positive nuclei fraction z-score” value in assay [4] was determined as 2.35.

Take `COc1cc(C(=O)NS(=O)(=O)c2ccccc2C)ccc1Cc1cn(C)c2ccc(NC(=O)OC3CCCC3)cc12` [Zafirlukast]: the nucleus area z-score in assay [1] was -0.608. Besides, in assay [2], the “total neurite length per nucleus (z-score)” value is -0.198. In addition, the nucleus roundness z-score in assay [3] was -0.8. For the same compound, the “KCl-induced FOS+/EGR-1+ double-positive nuclei fraction z-score” value in assay [4] is 1.8.

In the case of `Cc1cc(C#N)cc(C)c1Oc1nc(Nc2ccc(C#N)cc2)nc(N)c1Br` [Etravirine (TMC125)], the nucleus area z-score in assay [1] is -0.775. Moreover, the “total neurite length per nucleus (z-score)” value in assay [2] came out at 0.163. The compound also gave a nucleus roundness z-score in assay [3] of -0.729. In addition, the “KCl-induced FOS+/EGR-1+ double-positive nuclei fraction z-score” value in assay [4] was -0.361.

As to `COc1ccc2cc(OCC3(C(=O)O)CN(C(=O)c4ccc(F)cc4)C3)ccc2c1`, the nucleus area z-score in assay [1] was 0.404. Besides, in assay [2], the “total neurite length per nucleus (z-score)” value was 1.35. Besides, in assay [3], the nucleus roundness z-score was 0.812. The “KCl-induced FOS+/EGR-1+ double-positive nuclei fraction z-score” value in assay [4] was found to be 2.71.

In assay [1], `COc1ccc([C@@H]2CC(=O)c3c(O)cc(O[C@@H]4O[C@H](CO[C@@H]5O[C@@H](C)[C@H](O)[C@@H](O)[C@H]5O)[C@@H](O)[C@H](O)[C@H]4O)cc3O2)cc1O` [Hesperidin] registered a nucleus area z-score of 0.148. The “total neurite length per nucleus (z-score)” value in assay [2] was found to be 0.439. This compound also returned a nucleus roundness z-score in assay [3] of 0.489. Further, the “KCl-induced FOS+/EGR-1+ double-positive nuclei fraction z-score” value in assay [4] was -0.424.

With `C[C@H]1COC2(CCN(c3nc(=O)c4cc(C(F)(F)F)cc([N+](=O)[O-])c4s3)CC2)O1` (racemic) [BTZ043 Racemate], the nucleus area z-score in assay [1] amounted to 0.722. In assay [2], the “total neurite length per nucleus (z-score)” value was determined as 0.23. In assay [3], the nucleus roundness z-score was -0.0412. Moreover, the “KCl-induced FOS+/EGR-1+ double-positive nuclei fraction z-score” value in assay [4] amounted to 0.185.
